Data published in article PMC7819943, “Rice protein-binding microarrays: a tool to detect cis-acting elements near promoter regions in rice”.
The other results are listed elsewhere or left out.

The chains behind the UniProt entries cited, without tags or fusion partners.
UniProt Q0JBA9, entry or part of it: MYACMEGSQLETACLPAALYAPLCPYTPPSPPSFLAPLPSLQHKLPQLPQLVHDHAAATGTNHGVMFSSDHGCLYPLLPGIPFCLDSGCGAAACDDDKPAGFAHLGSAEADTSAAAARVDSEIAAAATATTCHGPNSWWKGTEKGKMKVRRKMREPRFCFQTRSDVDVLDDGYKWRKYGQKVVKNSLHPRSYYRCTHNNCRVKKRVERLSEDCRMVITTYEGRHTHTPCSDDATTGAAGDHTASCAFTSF

Target: OsWRKY34 (Oryza sativa, UniProt Q0JBA9 1-250)
Test: protein-binding microarray (RPBM); PBS, 2% BSA, 51.3 ng/ul salmon testes DNA, 50 uM zinc acetate, 200 nM TF, 25 C, 1 h; high values mean tight binding
Conditions: protein: recombinant; tags: N-terminal polyhistidine and DsRed monomer fusion (pET32a); label: CyDye5-dUTP incorporated in the synthesized complementary strand; 3' TTTTT single-stranded linker to array surface; dsDNA, one strand shown
How it was run: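 Per-feature fluorescence intensity (arbitrary units), read on an Axon 4000B scanner, is the binding signal. Transcription factors carrying an N-terminal polyhistidine tag and DsRed fusion were expressed in E. coli BL21-CodonPlus and purified on Ni–NTA. A custom Agilent array, made double-stranded by primer extension with Cy5-dUTP and blocked with 2% BSA, was incubated with 200 nM protein in PBS, 2% BSA, salmon testes DNA and 50 µM zinc acetate at 25 °C for 1 h and then washed.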

Row | Sequence | binding signal
1 | AGTAGGCCCAACCCAGTTAGACGAATTCCTCAACCTTATCCGGAGTCACCTAGTGCAG | 9080 fluorescence intensity (a.u.)
2 | GTTCGTCGTCGTCTTCGCCTTCGTCTTCTCCATCCACCACCGGAGTCACCTAGTGCAG | 16100 fluorescence intensity (a.u.)
3 | ACGGTCCACCACCACCAGATATGCCGCCGCCCACCGCCCTCGGAGTCACCTAGTGCAG | 10500 fluorescence intensity (a.u.)
4 | ACATTTTCCACCCTAACCTACAAAAATTAGTAGTTTTTTACGGAGTCACCTAGTGCAG | 8090 fluorescence intensity (a.u.)
5 | GGTGTACTTTTTCCCATACCTATACATCCCGCGTTTTAGTCGGAGTCACCTAGTGCAG | 12300 fluorescence intensity (a.u.)
6 | TTCTGCTACGACTTCATACGAGTCTACGAACCAGTCGCCGCGGAGTCACCTAGTGCAG | 8730 fluorescence intensity (a.u.)
7 | GTTTCTTTCTTGTCGGCTACGTTTTAAATGACCAGTTAGTCGGAGTCACCTAGTGCAG | 8870 fluorescence intensity (a.u.)
8 | ATTATATTTTGCTCCTGTAGGTTATATTATATATGTTGTCCGGAGTCACCTAGTGCAG | 9960 fluorescence intensity (a.u.)
9 | CCGCCGCCGCCGCCGCAGCCACACCACCCGCGCCGCCCGTCGGAGTCACCTAGTGCAG | 8600 fluorescence intensity (a.u.)
10 | TTTTGATTACTCATATAATCACCTTGTTATTTCTTTATATCGGAGTCACCTAGTGCAG | 9840 fluorescence intensity (a.u.)
11 | ACAGAGCATGACACCTCAGCATTTTTTACCTTTCCTCTTCCGGAGTCACCTAGTGCAG | 9210 fluorescence intensity (a.u.)
12 | ATCTTCCAAATCGTTTCATATTCGTGTTTACTGGAATAATCGGAGTCACCTAGTGCAG | 9200 fluorescence intensity (a.u.)
13 | ACCTGACTAGCAAGCAACAATCATGTAACTTTTCACCTTTCGGAGTCACCTAGTGCAG | 8070 fluorescence intensity (a.u.)
14 | TAAGTTTTCATTCGACACATTCTCAGTTACCTCTTCGAAACGGAGTCACCTAGTGCAG | 10300 fluorescence intensity (a.u.)
15 | GAGCTTTTCAAAGTGGGTATTCTTATATATCACCGGTCTTCGGAGTCACCTAGTGCAG | 8030 fluorescence intensity (a.u.)
16 | CACTGTGTGTGATCTTTTGGTCCTGCCTTCCTGTTGTACCCGGAGTCACCTAGTGCAG | 9920 fluorescence intensity (a.u.)
17 | CTTTCTTATTGACTATTTTATTATTTGAGGTCATTTAGGGCGGAGTCACCTAGTGCAG | 9310 fluorescence intensity (a.u.)
18 | CAGAATCTAGTGCATGCCCTCACTTCATTCATCGCAATTTCGGAGTCACCTAGTGCAG | 8040 fluorescence intensity (a.u.)
19 | CATCGCTGACTTCTCTATTGCTCATTGTTGTTGTGTTGTTCGGAGTCACCTAGTGCAG | 13300 fluorescence intensity (a.u.)
20 | CTACAGTGTTCTGGTCAAATCTGAGCTGTTTTTCTTTGATCGGAGTCACCTAGTGCAG | 11400 fluorescence intensity (a.u.)
21 | TTCCGGCCGCCTCCTAGGGTTTCGCCCGCGCTCCGCCACCCGGAGTCACCTAGTGCAG | 8340 fluorescence intensity (a.u.)

Row | Sequence | binding signal
22 | GCTCCTGCTTTCCCGAGTCCCTGCAAACCCGACACCATCGCGGAGTCACCTAGTGCAG | 10600 fluorescence intensity (a.u.)
23 | TTGGGCCGTGCAATCTAACCCGTACTCTTTCTGTATCATCCGGAGTCACCTAGTGCAG | 11600 fluorescence intensity (a.u.)
24 | GGCTTGCTGGGGTGCGTCAATGAGGTGGTGGCGGCGGTGGCGGAGTCACCTAGTGCAG | 12000 fluorescence intensity (a.u.)
25 | ACTCCGCTTCTCCACCGACGCCACCACTGTCCTTCTCGCTCGGAGTCACCTAGTGCAG | 12100 fluorescence intensity (a.u.)
26 | ATTTTCACCGTGTCTACATCATTTCTTTACAAAAGCATTTCGGAGTCACCTAGTGCAG | 10500 fluorescence intensity (a.u.)
27 | GCCACTTATCCGCTAAGCACGTTATATGGCGGTGCACTGTCGGAGTCACCTAGTGCAG | 8660 fluorescence intensity (a.u.)
28 | GTACTACTCAGGTCACTATAACCACTAGTCTACATGTCCTCGGAGTCACCTAGTGCAG | 9000 fluorescence intensity (a.u.)
29 | GTGGGGCCCACCTGTCGGGGCGGTTGATGGGCTCTTCTAGCGGAGTCACCTAGTGCAG | 8370 fluorescence intensity (a.u.)
30 | TATAGGGACGGAGCGAGTATTTTGCAACTCACTTCTCCGACGGAGTCACCTAGTGCAG | 8100 fluorescence intensity (a.u.)
31 | TCTATTTTATTTGGGTGGGGATAGTTTTAGTGGGAATTTGCGGAGTCACCTAGTGCAG | 24200 fluorescence intensity (a.u.)
32 | CTAAATTAATGGTCGCTTTGACTTTTTTTATGTAATGTTTCGGAGTCACCTAGTGCAG | 14700 fluorescence intensity (a.u.)
33 | AGAGAGGGTGTTGTGAATTGGGAATTTCGGGATTATTGCTCGGAGTCACCTAGTGCAG | 11800 fluorescence intensity (a.u.)
34 | CGACTTGTCAGCGGCCTCCATCGCGTGTGCCTTTCTCAGTCGGAGTCACCTAGTGCAG | 9480 fluorescence intensity (a.u.)
35 | ACTTTCCGCGTCTTCTTCGTCTTCGTCTTCGTCCTCCTCCCGGAGTCACCTAGTGCAG | 12100 fluorescence intensity (a.u.)
36 | AACGGTCAAACATGTGCTAAAAAGTCAACGGTGTCAAATACGGAGTCACCTAGTGCAG | 18600 fluorescence intensity (a.u.)
37 | TTTACGGTTTGGGGAATTGAGAGTCGTACTTAAGGCTTATCGGAGTCACCTAGTGCAG | 9370 fluorescence intensity (a.u.)
38 | CTCTCTCTTCGCCCGTGACTCCATCCCCTCCCTAGCCGCTCGGAGTCACCTAGTGCAG | 8190 fluorescence intensity (a.u.)
39 | GCAAACCCACGTCTACCCAGCCTCACTCTACCCAACACCCCGGAGTCACCTAGTGCAG | 8460 fluorescence intensity (a.u.)
40 | ACTGTTGACCAGCAGTGCTGGGTAATGATTTTCCCGGATGCGGAGTCACCTAGTGCAG | 10300 fluorescence intensity (a.u.)
41 | TGAAATGAAATGAAATGAAATGGGGTTGGGTAATTAAGCTCGGAGTCACCTAGTGCAG | 9610 fluorescence intensity (a.u.)
42 | GCCGCTTGGGCCGCTCTATGCTGCTCACCGTCTGTCGTAGCGGAGTCACCTAGTGCAG | 8740 fluorescence intensity (a.u.)

Taken from above:
Value for CTCTCTCTTCGCCCGTGACTCCATCCCCTCCCTAGCCGCTCGGAGTCACCTAGTGCAG under binding signal: 8190 fluorescence intensity (a.u.)
Value for AGAGAGGGTGTTGTGAATTGGGAATTTCGGGATTATTGCTCGGAGTCACCTAGTGCAG under binding signal: 11800 fluorescence intensity (a.u.)
Value for CGACTTGTCAGCGGCCTCCATCGCGTGTGCCTTTCTCAGTCGGAGTCACCTAGTGCAG under binding signal: 9480 fluorescence intensity (a.u.)
Value for GCTCCTGCTTTCCCGAGTCCCTGCAAACCCGACACCATCGCGGAGTCACCTAGTGCAG under binding signal: 10600 fluorescence intensity (a.u.)
